These results are taken from patent US6030950A, “Pharmaceutical therapeutic use of glutathione derivative” (priority 1987, dated 2000).

The conditions of data set [1]: human blood, oxygen deficiency stress, 600 mg slowly intravenously, 10 minutes after administration; n=50. Here is the method:
2.2) Self-experiment on man to improve and/or normalize the redox status of the blood:
After a defined oxygen deficiency stress, the same parameters were determined in human blood as in the trial described above. In all 50 trials were carried out on different days
After that, glutathione was slowly administered intravenously in an amount of 600 mg.
Boundary conditions: Temperature of 20° C., air pressure of 758-770 mm Hg.

For data set [2] the following is noted: rabbit ear venous blood, oxygen deficiency stress, 10 mg/kg, 5-10 minutes after administration; n=30. The protocol:
2.1) Animal Experiments with rabbits to improve and/or normalize the redox status of the blood:
In 5 different rabbits, the following parameters were measured by the method and with the instrument of VINCENT in 30 experiments in venous blood:
redox potential E H or electron potential: rH2
The values were measured in the venous blood of the ear after a defined oxygen deficiency stress.
The following values were determined 5-10 minutes after the glutathione one was administered:
Boundary conditions: Temperature of 20° C., air pressure of 767 mm Hg.

SMILES strings stand for the structures. Where two headings read alike, the source gives them in different places.

In the case of `N[C@@H](CCC(=O)N[C@@H](CS)C(=O)NCC(=O)O)C(=O)O` [reduced glutathione, gamma-glutamyl-cysteinyl-glycine], the “Ohm's resistance r” value was found to be 204 ± 12.3 ohm/cm^2 in data set [1] and 202 ± 14 ohm/cm^2 in data set [2]. In addition, the pH in data set [1] is recorded as 7.23 ± 0.11; in data set [2], 7.15 ± 0.16.
